# Results: the supplement of paper PMC8728848
# This is one part of the list.
# Assays:
# Experiment in all cases: glycan array binding signal (z-score within array); higher = stronger binding
# Conditions in all cases: glycan notation: IUPAC condensed, linker removed
# [1] = target: Fuc(a1-2)Gal
# How it was run: (§1)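 Glycan array binding is given as a within-array Z-score, which can be read as non-binding when negative. The arrays, 3228 of them, came from the Consortium for Functional Glycomics database and were retained only where the protein sequence was available. Z-scores were averaged across arrays of the same protein sequence at different concentrations or buffers and across linkers.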
# [2] = target: Fuc(a1-2)Gal(b1-3)GalNAc
# How it was run: as §1
# [3] = target: Fuc(a1-2)Gal(b1-3)GalNAc(a1-3)[Fuc(a1-2)]Gal(b1-4)Glc
# How it was run: as §1
# [4] = target: Fuc(a1-2)Gal(b1-3)GalNAc(a1-3)[Fuc(a1-2)]Gal(b1-4)GlcNAc
# How it was run: as §1
# [5] = target: Fuc(a1-2)Gal(b1-3)GalNAc(b1-3)Gal
# How it was run: as §1
# [6] = target: Fuc(a1-2)Gal(b1-3)GalNAc(b1-3)Gal(a1-4)Gal(b1-4)Glc
# How it was run: as §1
# [7] = target: Fuc(a1-2)Gal(b1-3)GalNAc(b1-4)[Neu5Ac(a2-3)]Gal(b1-4)Glc
# How it was run: as §1
# [8] = target: Fuc(a1-2)Gal(b1-3)GlcNAc
# How it was run: as §1
# [9] = target: Fuc(a1-2)Gal(b1-3)GlcNAc(b1-2)Man(a1-3)[Fuc(a1-2)Gal(b1-3)GlcNAc(b1-2)Man(a1-6)]Man(b1-4)GlcNAc(b1-4)GlcNAc
# How it was run: as §1
# [10] = target: Fuc(a1-2)Gal(b1-3)GlcNAc(b1-2)Man(a1-3)[Fuc(a1-2)Gal(b1-3)GlcNAc(b1-2)Man(a1-6)]Man(b1-4)GlcNAc(b1-4)[Fuc(a1-6)]GlcNAc
# How it was run: as §1
# [11] = target: Fuc(a1-2)Gal(b1-3)GlcNAc(b1-3)Gal(b1-4)Glc
# How it was run: as §1
# [12] = target: Fuc(a1-2)Gal(b1-3)GlcNAc(b1-3)GalNAc
# How it was run: as §1
# [13] = target: Fuc(a1-2)Gal(b1-3)GlcNAc(b1-3)[Fuc(a1-2)Gal(b1-3)GlcNAc(b1-6)]GalNAc
# How it was run: as §1
# [14] = target: Fuc(a1-2)Gal(b1-3)GlcNAc(b1-3)[Gal(b1-4)GlcNAc(b1-6)]Gal(b1-4)Glc
# How it was run: as §1
# [15] = target: Fuc(a1-2)Gal(b1-3)GlcNAc(b1-3)[Neu5Ac(a2-6)Gal(b1-4)GlcNAc(b1-6)]Gal(b1-4)Glc
# How it was run: as §1
# [16] = target: Fuc(a1-2)Gal(b1-3)GlcNAc6S
# How it was run: as §1
# [17] = target: Fuc(a1-2)Gal(b1-3)[Fuc(a1-4)]GlcNAc
# How it was run: as §1
# [18] = target: Fuc(a1-2)Gal(b1-3)[Fuc(a1-4)]GlcNAc(b1-2)Man(a1-3)[Fuc(a1-2)Gal(b1-3)[Fuc(a1-4)]GlcNAc(b1-2)Man(a1-3)]Man(b1-4)GlcNAc(b1-4)GlcNAc
# How it was run: as §1
# [19] = target: Fuc(a1-2)Gal(b1-3)[Fuc(a1-4)]GlcNAc(b1-2)Man(a1-3)[Fuc(a1-2)Gal(b1-3)[Fuc(a1-4)]GlcNAc(b1-2)Man(a1-6)]Man(b1-4)GlcNAc(b1-4)[Fuc(a1-6)]GlcNAc(b1-4)[Fuc(a1-6)]GlcNAc
# How it was run: as §1
# [20] = target: Fuc(a1-2)Gal(b1-3)[Fuc(a1-4)]GlcNAc(b1-3)[Fuc(a1-3)[Gal(b1-4)]GlcNAc(b1-6)]Gal(b1-4)Glc
# How it was run: as §1
# [21] = target: Fuc(a1-2)Gal(b1-3)[Fuc(a1-4)]GlcNAc(b1-3)[Gal(b1-4)GlcNAc(b1-6)]Gal(b1-4)Glc
# How it was run: as §1
# [22] = target: Fuc(a1-2)Gal(b1-4)Glc
# How it was run: as §1
# [23] = target: Fuc(a1-2)Gal(b1-4)Glc6S
# How it was run: as §1
# [24] = target: Fuc(a1-2)Gal(b1-4)GlcNAc
# How it was run: as §1
# [25] = target: Fuc(a1-2)Gal(b1-4)GlcNAc(b1-2)Man
# How it was run: as §1
# [26] = target: Fuc(a1-2)Gal(b1-4)GlcNAc(b1-2)Man(a1-3)[Fuc(a1-2)Gal(b1-4)GlcNAc(b1-2)Man(a1-6)]Man(b1-4)GlcNAc(b1-4)GlcNAc
# How it was run: as §1
# [27] = target: Fuc(a1-2)Gal(b1-4)GlcNAc(b1-2)Man(a1-3)[Fuc(a1-2)Gal(b1-4)GlcNAc(b1-2)Man(a1-6)]Man(b1-4)GlcNAc(b1-4)[Fuc(a1-6)]GlcNAc
# How it was run: as §1
# [28] = target: Fuc(a1-2)Gal(b1-4)GlcNAc(b1-2)[Fuc(a1-2)Gal(b1-4)GlcNAc(b1-4)]Man(a1-3)[Fuc(a1-2)Gal(b1-4)GlcNAc(b1-2)Man(a1-6)]Man(b1-4)GlcNAc(b1-4)GlcNAc
# How it was run: as §1
# [29] = target: Fuc(a1-2)Gal(b1-4)GlcNAc(b1-3)Gal(b1-4)GlcNAc
# How it was run: as §1
# [30] = target: Fuc(a1-2)Gal(b1-4)GlcNAc(b1-3)Gal(b1-4)GlcNAc(b1-2)Man(a1-3)[Fuc(a1-2)Gal(b1-4)GlcNAc(b1-3)Gal(b1-4)GlcNAc(b1-2)Man(a1-6)]Man(b1-4)GlcNAc(b1-4)GlcNAc
# How it was run: as §1
binder,measurement,setting,value
EUL D1A first (Oryza sativa) (protein) MFGFGHHHNQAPAAPSDPNQIFKIFCRANENYCLTVRDSAVVLAPVNPKDEHQHWFKDMRFSTKVKDGEGMPAFALVNKATGLAVKHSLGQSHPVKLVPFNPEYEDASVLWTESKDVGKGFRCIRMVNNTRLNLDAFHGDKDHGGVRDGTTVVLWEWCKGDNQSWKILPWGPEAHSSSPGAATILEQKLISEEDLNSAVDHHHHHH,glycan array binding signal (z-score),[1],-0.803
same,glycan array binding signal (z-score),[2],-0.658
same,glycan array binding signal (z-score),[3],-1.18
same,glycan array binding signal (z-score),[4],-0.14
same,glycan array binding signal (z-score),[5],-0.944
same,glycan array binding signal (z-score),[6],2.66
same,glycan array binding signal (z-score),[7],0.02
same,glycan array binding signal (z-score),[8],-0.301
same,glycan array binding signal (z-score),[9],0.636
same,glycan array binding signal (z-score),[10],-0.245
same,glycan array binding signal (z-score),[11],0.15
same,glycan array binding signal (z-score),[12],-0.893
same,glycan array binding signal (z-score),[13],-1.12
same,glycan array binding signal (z-score),[14],-0.085
same,glycan array binding signal (z-score),[15],0.072
same,glycan array binding signal (z-score),[16],3.74
same,glycan array binding signal (z-score),[17],-0.887
same,glycan array binding signal (z-score),[18],0.243
same,glycan array binding signal (z-score),[19],1.44
same,glycan array binding signal (z-score),[20],-0.062
same,glycan array binding signal (z-score),[21],1.7
same,glycan array binding signal (z-score),[22],0.54
same,glycan array binding signal (z-score),[23],1.57
same,glycan array binding signal (z-score),[24],-0.369
same,glycan array binding signal (z-score),[25],-1.03
same,glycan array binding signal (z-score),[26],1.43
same,glycan array binding signal (z-score),[27],1.89
same,glycan array binding signal (z-score),[28],-0.106
same,glycan array binding signal (z-score),[29],1.11
same,glycan array binding signal (z-score),[30],0.227

# Part of the list above, bar-delimited.
binder | measurement | setting | value
EUL D1A first (Oryza sativa) (protein) MFGFGHHHNQAPAAPSDPNQIFKIFCRANENYCLTVRDSAVVLAPVNPKDEHQHWFKDMRFSTKVKDGEGMPAFALVNKATGLAVKHSLGQSHPVKLVPFNPEYEDASVLWTESKDVGKGFRCIRMVNNTRLNLDAFHGDKDHGGVRDGTTVVLWEWCKGDNQSWKILPWGPEAHSSSPGAATILEQKLISEEDLNSAVDHHHHHH | glycan array binding signal (z-score) | [28] | -0.106
same | glycan array binding signal (z-score) | [29] | 1.11
